These are yes or no findings as the source states them, for the method shown. Binding seen in cells or lysates may run through a third protein. Here binding means that the protein was enriched with, or labelled near, the bait; the list need not be complete. For part of these data: No binding means not detected with the bait. For part of these data: Tags and fused reporters may be left off the sequences shown.
T1: CAF1 with a TAP-tag fused to the N-terminus (yeast) (UniProt P39008)
T1 sequence: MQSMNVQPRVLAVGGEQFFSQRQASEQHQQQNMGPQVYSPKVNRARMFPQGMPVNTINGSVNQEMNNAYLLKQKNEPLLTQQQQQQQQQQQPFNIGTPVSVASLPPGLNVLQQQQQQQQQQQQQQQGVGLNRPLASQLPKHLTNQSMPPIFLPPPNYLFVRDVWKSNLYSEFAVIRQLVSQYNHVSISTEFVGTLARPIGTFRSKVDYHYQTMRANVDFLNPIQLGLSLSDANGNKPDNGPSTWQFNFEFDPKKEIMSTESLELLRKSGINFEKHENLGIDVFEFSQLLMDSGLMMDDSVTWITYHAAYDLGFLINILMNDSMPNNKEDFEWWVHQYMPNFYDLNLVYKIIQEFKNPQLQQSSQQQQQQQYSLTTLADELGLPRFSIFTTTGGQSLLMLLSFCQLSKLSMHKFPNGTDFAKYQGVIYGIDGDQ

The chains behind the UniProt entries cited, without tags or fusion partners.
UniProt P25655: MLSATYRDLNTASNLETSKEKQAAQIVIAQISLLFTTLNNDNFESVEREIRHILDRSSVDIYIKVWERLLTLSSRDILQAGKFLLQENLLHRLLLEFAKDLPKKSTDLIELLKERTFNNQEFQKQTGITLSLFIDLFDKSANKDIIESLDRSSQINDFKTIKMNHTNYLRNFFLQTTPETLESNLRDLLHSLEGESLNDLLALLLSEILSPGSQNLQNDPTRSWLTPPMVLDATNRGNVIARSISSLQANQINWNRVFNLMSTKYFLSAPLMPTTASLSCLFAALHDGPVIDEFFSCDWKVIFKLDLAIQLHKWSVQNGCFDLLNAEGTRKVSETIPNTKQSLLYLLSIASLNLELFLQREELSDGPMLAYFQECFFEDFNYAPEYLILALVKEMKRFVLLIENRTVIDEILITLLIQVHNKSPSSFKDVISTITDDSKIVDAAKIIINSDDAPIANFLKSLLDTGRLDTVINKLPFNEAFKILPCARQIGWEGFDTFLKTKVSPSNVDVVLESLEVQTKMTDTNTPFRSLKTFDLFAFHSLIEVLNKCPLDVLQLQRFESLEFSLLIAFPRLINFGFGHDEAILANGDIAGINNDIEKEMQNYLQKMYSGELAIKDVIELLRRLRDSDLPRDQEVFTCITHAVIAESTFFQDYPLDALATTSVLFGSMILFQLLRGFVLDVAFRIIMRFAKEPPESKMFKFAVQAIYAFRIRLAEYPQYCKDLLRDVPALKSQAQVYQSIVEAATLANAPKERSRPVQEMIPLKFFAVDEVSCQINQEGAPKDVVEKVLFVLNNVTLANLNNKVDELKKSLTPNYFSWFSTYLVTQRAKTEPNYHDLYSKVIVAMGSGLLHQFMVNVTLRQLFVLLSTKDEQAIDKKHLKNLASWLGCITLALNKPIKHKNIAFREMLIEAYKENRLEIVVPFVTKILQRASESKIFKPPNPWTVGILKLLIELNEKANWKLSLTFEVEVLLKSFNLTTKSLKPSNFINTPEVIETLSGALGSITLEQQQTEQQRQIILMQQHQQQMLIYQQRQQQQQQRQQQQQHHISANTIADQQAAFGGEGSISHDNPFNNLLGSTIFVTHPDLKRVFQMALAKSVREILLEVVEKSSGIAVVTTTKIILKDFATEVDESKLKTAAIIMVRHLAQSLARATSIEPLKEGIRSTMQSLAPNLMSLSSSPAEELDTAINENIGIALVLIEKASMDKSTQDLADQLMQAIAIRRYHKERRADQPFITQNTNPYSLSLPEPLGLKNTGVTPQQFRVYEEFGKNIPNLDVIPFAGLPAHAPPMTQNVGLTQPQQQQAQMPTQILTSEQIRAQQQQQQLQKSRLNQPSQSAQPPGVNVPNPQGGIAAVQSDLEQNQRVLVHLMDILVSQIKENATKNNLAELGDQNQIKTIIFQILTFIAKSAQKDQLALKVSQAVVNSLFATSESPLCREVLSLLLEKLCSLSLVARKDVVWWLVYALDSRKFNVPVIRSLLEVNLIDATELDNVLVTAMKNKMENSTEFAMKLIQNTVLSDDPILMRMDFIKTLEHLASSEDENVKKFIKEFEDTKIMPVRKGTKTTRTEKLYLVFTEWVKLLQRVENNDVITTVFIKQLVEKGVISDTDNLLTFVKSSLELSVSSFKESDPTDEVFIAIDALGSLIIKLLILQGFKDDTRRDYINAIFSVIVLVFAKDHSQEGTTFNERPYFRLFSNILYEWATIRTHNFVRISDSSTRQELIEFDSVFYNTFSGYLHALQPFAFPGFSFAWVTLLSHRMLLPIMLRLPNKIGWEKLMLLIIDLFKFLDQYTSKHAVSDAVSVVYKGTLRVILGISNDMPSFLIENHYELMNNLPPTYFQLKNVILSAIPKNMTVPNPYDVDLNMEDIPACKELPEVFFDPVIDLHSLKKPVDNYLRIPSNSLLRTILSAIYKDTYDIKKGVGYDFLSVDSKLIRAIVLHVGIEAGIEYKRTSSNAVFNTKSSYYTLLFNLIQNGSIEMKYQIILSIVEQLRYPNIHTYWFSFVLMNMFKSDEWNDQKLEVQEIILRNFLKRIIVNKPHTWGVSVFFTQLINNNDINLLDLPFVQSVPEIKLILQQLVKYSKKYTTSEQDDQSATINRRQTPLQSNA

B1: NOT2 (protein, UniProt P06100 1-191)
chain: MEKFGLKALVPLLKLEDKELSSTYDHSMTLGADLSSMLYSLGIPRDSQDHRVLDTFQSPWAETSRSEVEPRFFTPESFTNIPGVLQSTVTPPCFNSIQNDQQRVALFQDETLFFLFYKHPGTVIQELTYLELRKRNWRYHKTLKAWLTKDPMMEPIVSADGLSERGSYVFFDPQRWEKCQRDFLLFYNAIM
B2: NOT5 (protein, UniProt Q12514 1-560)
chain: MSQRKLQQDIDKLLKKVKEGIEDFDDIYEKFQSTDPSNSSHREKLESDLKREIKKLQKHRDQIKTWLSKEDVKDKQSVLMTNRRLIENGMERFKSVEKLMKTKQFSKEALTNPDIIKDPKELKKRDQVLFIHDCLDELQKQLEQYEAQENEEQTERHEFHIANLENILKKLQNNEMDPEPVEEFQDDIKYYVENNDDPDFIEYDTIYEDMGCEIQPSSSNNEAPKEGNNQTSLSSIRSSKKQERSPKKKAPQRDVSISDRATTPIAPGVESASQSISSTPTPVSTDTPLHTVKDDSIKFDNSTLGTPTTHVSMKKKESENDSEQQLNFPPDRTDEIRKTIQHDVETNAAFQNPLFNDELKYWLDSKRYLMQPLQEMSPKMVSQLESSLLNCPDSLDADSPCLYTKPLSLPHPTSIFFPNEPIRFVYPYDVPLNLTNNENDTDNKFGKDSKAKSKKDDDIYSRTSLARIFMKFDLDTLFFIFYHYQGSYEQFLAARELFKNRNWLFNKVDRCWYYKEIEKLPPGMGKSEEESWRYFDYKKSWLARRCGNDFVYNEEDFEKL
B3: CAF130 (protein, UniProt P53280 1-1122)
chain: MTKKKAATNYAERQNLASEDSSGDSVHFKDFIPLQELLKDKNYVPSVENLEKILYNETMFNDQKICSNLLLEALIITLFTTISGKSALRLIQTSSLKERKSWAQSFENNSSSYASIVLSWKDNDILLLKFLRFLLANKTAPLQINRYNLPEYKLPLSFLIVSKITIPSILLNETYNLLKDYLYSITGRIESLISCSSTFDKPALVVRKILKDYNRMIECRNFYFWYSFNAENRVNLTFSDNISLLMENDEGNAGSGLDDSRFDHQKQPREAIMGRTINDQEQIYSFELNQDGTLEIPNVMEHSLLRHELLFKILNLTTVLTPLLELQFSTLCGLVDPLMQPTPNDKHIISIDFLFQLFLGLMSQSIKTSQEHNDHYDWKFYMCFNMQKIIDATMLRLNCFDFDILNSVNNTDNAVHWKTQLHRWLPHGLNTQDLELLYMIDILAVYTIYKLYEKIPIQLNPFLFSLISLWKNLSCVILLALEIDRIEEENGTYETPLMVRATIRGAAALRSVIATVLNGLVKNNDHDFKHESLNTFMSPYGRKLCHGALYADLRSHTASLLALGASIEDVTDLFADLQSGDRFDEDIRYMFDYECEDYDESFSESDHGGLDESVVNPTEKIASGSNNVFFRRRCNCIFNDDKLVAEDGANEAFGSTNSENVEGAMHNNRNAVHNATTATSDHVVTSPNPLSVRSRSTFEFDYSGEDWRDVPRDFNMYYSPSYSFIHEPKLDVIFSLTLRGATEKLNKEESILLVRSVASCVRNEQDQMILADLESNFSASINGDVEGEGNTKMSKIDNEDLRRTTPDDIYEIWSEESAFERMLNVNHDVAWRLMDEMLMCTGYRRILIWFLTHLELKHSLIYYVFELIMGLRGKPFSGEASDQDKKDDMIYEILKKKQKNEDASGLPFSRQGPIVLSDIETKMLLQEFFMNAAIFLSSKNNEEENEDGEKISLYSLGLVRLICYMVQTLIANDKFFFTKSECTFELQTLLMTWIGILPEAKDLFFKIKTRLAMEEEDSADTMQHEGRKNSDIEKKLNAKPASELNLKLLNLFPSKPANKDDSSPINTLRSFIADYSFDTQVNPPGRRVVFYDGKILPLPKADKPIPLHEYITLAELDVGDSE
B4: CCR4 (protein, UniProt P31384 1-837)
chain: MNDPSLLGYPNVGPQQQQQQQQQQHAGLLGKGTPNALQQQLHMNQLTGIPPPGLMNNSDVHTSSNNNSRQLLDQLANGNANMLNMNMDNNNNNNNNNNNNNNNGGGSGVMMNASTAAVNSIGMVPTVGTPVNINVNASNPLLHPHLDDPSLLNNPIWKLQLHLAAVSAQSLGQPNIYARQNAMKKYLATQQAQQAQQQAQQQAQQQVPGPFGPGPQAAPPALQPTDFQQSHIAEASKSLVDCTKQALMEMADTLTDSKTAKKQQPTGDSTPSGTATNSAVSTPLTPKIELFANGKDEANQALLQHKKLSQYSIDEDDDIENRMVMPKDSKYDDQLWHALDLSNLQIFNISANIFKYDFLTRLYLNGNSLTELPAEIKNLSNLRVLDLSHNRLTSLPAELGSCFQLKYFYFFDNMVTTLPWEFGNLCNLQFLGVEGNPLEKQFLKILTEKSVTGLIFYLRDNRPEIPLPHERRFIEINTDGEPQREYDSLQQSTEHLATDLAKRTFTVLSYNTLCQHYATPKMYRYTPSWALSWDYRRNKLKEQILSYDSDLLCLQEVESKTFEEYWVPLLDKHGYTGIFHAKARAKTMHSKDSKKVDGCCIFFKRDQFKLITKDAMDFSGAWMKHKKFQRTEDYLNRAMNKDNVALFLKLQHIPSGDTIWAVTTHLHWDPKFNDVKTFQVGVLLDHLETLLKEETSHNFRQDIKKFPVLICGDFNSYINSAVYELINTGRVQIHQEGNGRDFGYMSEKNFSHNLALKSSYNCIGELPFTNFTPSFTDVIDYIWFSTHALRVRGLLGEVDPEYVSKFIGFPNDKFPSDHIPLLARFEFMKTNTGSKKV
B5: CAF1 (protein, UniProt P39008 1-433)
chain: T1 sequence

target: T1, CAF1 with a TAP-tag fused to the N-terminus (yeast); experiment: affinity purification with mass spectrometry; yeast lysate, N-terminally TAP-tagged CAF1 as bait: IgG sepharose and TEV cleavage only (before the calmodulin step); Coomassie SDS-gel

Binder | binding
B1 | binds
B2 | binds
B3 | binds

target: T1, CAF1 with a TAP-tag fused to the N-terminus (yeast); experiment: affinity purification with mass spectrometry; tandem affinity purification from yeast lysate with N-terminally TAP-tagged CAF1 as bait: IgG sepharose, TEV cleavage, then calmodulin purification; Coomassie SDS-gel, components identified by mass spectrometry; 4 °C

Binder | binding
B4 | binds

target: NOT1 with a TAP-tag fused to the N-terminus (yeast) (UniProt P25655); experiment: affinity purification with mass spectrometry; yeast lysate, N-terminally TAP-tagged NOT1 as bait: IgG sepharose, TEV cleavage, then glycerol gradient instead of the calmodulin step; Coomassie SDS-gel, components identified by mass spectrometry

Binder | binding
B1 | binds
B2 | binds
B4 | binds
B5 | binds
B3 | binds

target: T1, CAF1 with a TAP-tag fused to the N-terminus (yeast); experiment: condition: only after the calmodulin purification step; affinity purification with mass spectrometry; tandem affinity purification from yeast lysate with N-terminally TAP-tagged CAF1 as bait: IgG sepharose, TEV cleavage, then calmodulin purification; Coomassie SDS-gel, components identified by mass spectrometry; 4 °C

Binder | binding
B1 | no binding
B2 | no binding
B3 | no binding
